Source: article PMC6929986
Like-named read-outs stand apart in the source and are kept apart here. Results are given in words; binding and its absence hold for the method and conditions named. Binding seen in cells or lysates may run through a third protein. Some results given as binding are weak or reduced against the parent protein; the word gives no strength. For part of these data: Where a sequence is shown, tags or fusion partners need not be part of it.

The chains behind the UniProt entries cited, without tags or fusion partners. Residues count along the entry.
UniProt Q5VYY1: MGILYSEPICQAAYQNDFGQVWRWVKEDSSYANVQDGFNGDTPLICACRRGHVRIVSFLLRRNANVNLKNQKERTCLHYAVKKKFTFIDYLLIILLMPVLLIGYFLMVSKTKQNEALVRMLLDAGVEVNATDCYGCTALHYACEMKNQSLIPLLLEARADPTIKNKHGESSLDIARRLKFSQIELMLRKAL
UniProt Q15118, residues 29-436: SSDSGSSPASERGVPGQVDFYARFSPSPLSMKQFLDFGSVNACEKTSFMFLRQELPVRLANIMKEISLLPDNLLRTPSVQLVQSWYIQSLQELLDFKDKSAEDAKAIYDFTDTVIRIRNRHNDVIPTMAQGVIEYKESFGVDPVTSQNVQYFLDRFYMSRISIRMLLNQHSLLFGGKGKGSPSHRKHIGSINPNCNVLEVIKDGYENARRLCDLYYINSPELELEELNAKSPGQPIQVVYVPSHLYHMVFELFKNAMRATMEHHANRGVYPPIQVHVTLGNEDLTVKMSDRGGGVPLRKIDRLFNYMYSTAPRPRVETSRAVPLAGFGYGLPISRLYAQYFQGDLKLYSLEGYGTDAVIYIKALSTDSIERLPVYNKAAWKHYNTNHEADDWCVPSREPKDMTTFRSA

Legend:
[1] = target: Halo-ANKRD22 fusion protein (Ankyrin repeat domain-containing protein 22 fused with Halo-tag) (UniProt Q5VYY1); assay: pull-down; Halo-tag pull-down (called Co-IP by the paper) from lysate of RKO cells expressing Halo-ANKRD22 on HaloLink resin, Western blot of the eluate; 2D or organoid culture; also after SLC25A5 or ESYT1 knock-down; eluent of control cells as negative control
[2] = target: T1, Flag-SLC25A5 (Flag-tagged ANT2) (UniProt P05141); assay: co-IP; Flag-SLC25A5/pcDNA3.1(-) or pcDNA3.1(-) transfected into E-Syt1-overexpressing 293T cells, Co-IP after 48 hours
T1 sequence: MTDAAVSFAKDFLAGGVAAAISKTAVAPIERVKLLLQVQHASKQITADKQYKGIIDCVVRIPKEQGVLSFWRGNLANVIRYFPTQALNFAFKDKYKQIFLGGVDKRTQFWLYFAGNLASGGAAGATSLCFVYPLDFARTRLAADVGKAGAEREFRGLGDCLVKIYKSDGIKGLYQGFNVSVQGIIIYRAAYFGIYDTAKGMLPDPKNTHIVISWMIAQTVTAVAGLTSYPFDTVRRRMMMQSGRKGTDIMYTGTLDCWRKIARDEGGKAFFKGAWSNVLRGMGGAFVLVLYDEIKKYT

[3] = target: Halo-ANKRD22 fusion protein (Ankyrin repeat domain-containing protein 22 fused with Halo-tag) (UniProt Q5VYY1); assay: pull-down; Halo-tag pull-down (called Co-IP by the paper) from lysate of RKO cells expressing Halo-ANKRD22 on HaloLink resin, Western blot of the eluate; 2D or organoid culture; also after SLC25A5 or ESYT1 knock-down; eluent of control cells as negative control; remark: listed apart in the source

pyruvate dehydrogenase kinase isoform 1 (PDK1) (from UniProt Q15118 29-436) (enzyme)
binding [1]: binds

B1: Extended Synaptotagmin-1 (E-Syt1), overexpressed (protein, UniProt Q9BSJ8 1-1104)
chain: MERSPGEGPSPSPMDQPSAPSDPTDQPPAAHAKPDPGSGGQPAGPGAAGEALAVLTSFGRRLLVLIPVYLAGAVGLSVGFVLFGLALYLGWRRVRDEKERSLRAARQLLDDEEQLTAKTLYMSHRELPAWVSFPDVEKAEWLNKIVAQVWPFLGQYMEKLLAETVAPAVRGSNPHLQTFTFTRVELGEKPLRIIGVKVHPGQRKEQILLDLNISYVGDVQIDVEVKKYFCKAGVKGMQLHGVLRVILEPLIGDLPFVGAVSMFFIRRPTLDINWTGMTNLLDIPGLSSLSDTMIMDSIAAFLVLPNRLLVPLVPDLQDVAQLRSPLPRGIIRIHLLAARGLSSKDKYVKGLIEGKSDPYALVRLGTQTFCSRVIDEELNPQWGETYEVMVHEVPGQEIEVEVFDKDPDKDDFLGRMKLDVGKVLQASVLDDWFPLQGGQGQVHLRLEWLSLLSDAEKLEQVLQWNWGVSSRPDPPSAAILVVYLDRAQDLPLKKGNKEPNPMVQLSIQDVTQESKAVYSTNCPVWEEAFRFFLQDPQSQELDVQVKDDSRALTLGALTLPLARLLTAPELILDQWFQLSSSGPNSRLYMKLVMRILYLDSSEICFPTVPGCPGAWDVDSENPQRGSSVDAPPRPCHTTPDSQFGTEHVLRIHVLEAQDLIAKDRFLGGLVKGKSDPYVKLKLAGRSFRSHVVREDLNPRWNEVFEVIVTSVPGQELEVEVFDKDLDKDDFLGRCKVRLTTVLNSGFLDEWLTLEDVPSGRLHLRLERLTPRPTAAELEEVLQVNSLIQTQKSAELAAALLSIYMERAEDLPLRKGTKHLSPYATLTVGDSSHKTKTISQTSAPVWDESASFLIRKPHTESLELQVRGEGTGVLGSLSLPLSELLVADQLCLDRWFTLSSGQGQVLLRAQLGILVSQHSGVEAHSHSYSHSSSSLSEEPELSGGPPHITSSAPELRQRLTHVDSPLEAPAGPLGQVKLTLWYYSEERKLVSIVHGCRSLRQNGRDPPDPYVSLLLLPDKNRGTKRRTSQKKRTLSPEFNERFEWELPLDEAQRRKLDVSVKSNSSFMSRERELLGKVQLDLAETDLSQGVARWYDLMDNKDKGSS
binding [2]: binds

B2: Extended Synaptotagmin-1 (E-Syt1) (protein, UniProt Q9BSJ8 1-1104)
chain: B1 chain
binding [3]: binds
